Assays:
[1] = Photoconduction enhancement by dye in polycarbonate film with photoconductor 1,5-diphenyl-3-styryl-2-pyrazoline (corona charge, Stati-Tester); details: for Time to Vo/2: Examples 36-49, no dye: 43 sec; for Initial Voltage: Table 3, Examples 32-35, 0.01 g dye per 10 ml; for t1/2V (time for the initial potential to drop to half): Table 3, Examples 32-35, no dye: 43 sec
[2] = Photoconduction enhancement by dye in polycarbonate film with photoconductor 5-(p-diethylaminophenyl)-3-(p-diethylaminostyryl)-1-phenyl-2-pyrazoline; details: Examples 50-60, no dye: 6.0 sec

Compound	Time to Vo/2 [1] [s]	Initial Voltage [1]	t1/2V (time for the initial potential to drop to half) [1] [s]	Time to Vo/2 [2] [s]
Cc1cc(N)ccc1-c1cc(-c2ccccc2)cc(-c2ccccc2)[s+]1 [Example 14]	0.9			
c1ccc(CN(Cc2ccccc2)c2ccc(-c3cc(-c4ccccc4)cc(-c4ccccc4)[s+]3)cc2)cc1 [Example 11]	1.1			
Nc1ccc(-c2cc(-c3ccccc3)cc(-c3ccccc3)[s+]2)c(Cl)c1 [Example 27]	5.4			
Cc1cc(N)ccc1-c1cc(-c2ccccc2)cc(-c2ccccc2)[s+]1 [Example 15]	1.0	+625 V	1.0	
COc1cc(N)ccc1-c1cc(-c2ccccc2)cc(-c2ccccc2)[s+]1 [Example 23]				1.1
CCc1cc(-c2cc(-c3ccccc3)cc(-c3ccccc3)[s+]2)cc(CC)c1N [Example 18]	0.3			1.5
CCN(Cc1ccccc1)c1ccc(-c2cc(-c3ccccc3)cc(-c3ccccc3)[s+]2)cc1 [Example 8]				1.0
CN(C)c1ccc(-c2cc(-c3ccccc3)cc(-c3ccccc3)[s+]2)cc1 [Example 5]	0.7			1.2
CNc1ccc(-c2cc(-c3ccccc3)cc(-c3ccccc3)[s+]2)cc1 [Example 4]	0.9	+555 V	0.9	1.3
COc1cc(-c2cc(-c3ccccc3)cc(-c3ccccc3)[s+]2)ccc1N [Example 21]				1.2
Nc1ccc(-c2cc(-c3ccccc3)cc(-c3ccccc3)[s+]2)cc1N [Example 29]	11.2			
CCN(CC)c1ccc(-c2cc(-c3ccccc3)cc(-c3ccccc3)[s+]2)cc1 [Example 7]	1.6			1.4
Cc1cc(-c2cc(-c3ccccc3)cc(-c3ccccc3)[s+]2)ccc1N [Example 12]	1.0			
Nc1ccc(-c2cc(-c3ccccc3)cc(-c3ccccc3)[s+]2)cc1 [Example 2]	0.8	+610 V	0.8	1.2
Cc1cc(N(C)C)ccc1-c1cc(-c2ccccc2)cc(-c2ccccc2)[s+]1 [Example 16]	1.0			
Cc1cc(-c2cc(-c3ccccc3)cc(-c3ccccc3)[s+]2)cc(C)c1N [Example 17]	1.0			1.2
COc1cc(-c2cc(-c3ccccc3)cc(-c3ccccc3)[s+]2)c(OC)cc1N [Example 25]				1.8
